Results are given in words; binding and its absence hold for the method and conditions named. Binding calls can cover weak binding; strength is not graded here.
Legend:
[1] = target: Recombinant Msf fragment Msf 1-422 (strain H44/76) (Neisseria meningitidis strain H44/76); experiment: ELISA; competition: Msf 1-422 coated at 3 μM, aVn 74 nM overlaid in the presence of VA26 or a control peptide; bound aVn detected with anti-vitronectin; both purified
[2] = target: Recombinant Msf fragment Msf 1-203 (strain H44/76) (Neisseria meningitidis strain H44/76); experiment: ELISA; Msf constructs coated at 3 μM; biotinylated peptides (VA-26 or MV-14/GS-22) 1.5 μM in PBS overlaid 1 h at RT; detected with anti-biotin alkaline phosphatase antibody; both purified
[3] = target: Recombinant Msf fragment Msf 39-124 (strain H44/76) (Neisseria meningitidis strain H44/76); experiment: as above
[4] = target: Recombinant Msf fragment Msf 81-203 (strain H44/76) (Neisseria meningitidis strain H44/76); experiment: as above
[5] = target: Recombinant Msf 1-422 construct lacking amino acids 4-82 (Neisseria meningitidis strain H44/76); experiment: as above
[6] = target: Recombinant Msf fragment Msf 197-422 (strain H44/76) (Neisseria meningitidis strain H44/76); experiment: as above
[7] = target: Recombinant Msf fragment Msf 1-86 (strain H44/76) (Neisseria meningitidis strain H44/76); experiment: as above

VTRGDVFTMPEDEYTVYDDGEEKNNA (biotinylated (position not given)) [Biotinylated synthetic peptide spanning human vitronectin residues 43-68]
binding [1]: binds
binding [2]: binds
binding [3]: binds
binding [4]: binds weakly
binding [5]: binds weakly
binding [6]: binds weakly
binding [7]: binds

— article PMC4380367
